Results as given in the supplement of paper PMC10849652.
The list shows a part of the results.

The chains behind the UniProt entries cited, without tags or fusion partners. Where a name states a change or a piece, a line headed by the entry shows the natural chain unless it says otherwise.
UniProt Q8IZP0: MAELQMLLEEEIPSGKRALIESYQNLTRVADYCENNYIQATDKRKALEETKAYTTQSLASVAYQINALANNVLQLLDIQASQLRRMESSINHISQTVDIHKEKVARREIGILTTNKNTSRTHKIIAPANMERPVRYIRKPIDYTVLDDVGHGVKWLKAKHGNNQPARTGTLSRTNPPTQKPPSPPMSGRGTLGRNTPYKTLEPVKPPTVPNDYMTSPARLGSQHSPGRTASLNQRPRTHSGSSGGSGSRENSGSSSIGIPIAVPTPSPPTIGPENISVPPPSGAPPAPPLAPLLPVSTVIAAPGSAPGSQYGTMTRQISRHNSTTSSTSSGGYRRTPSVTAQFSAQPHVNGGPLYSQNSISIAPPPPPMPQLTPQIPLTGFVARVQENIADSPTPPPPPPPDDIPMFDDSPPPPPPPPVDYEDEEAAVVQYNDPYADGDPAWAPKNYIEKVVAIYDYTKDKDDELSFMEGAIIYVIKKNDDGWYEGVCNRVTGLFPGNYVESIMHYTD
UniProt Q9UKU7: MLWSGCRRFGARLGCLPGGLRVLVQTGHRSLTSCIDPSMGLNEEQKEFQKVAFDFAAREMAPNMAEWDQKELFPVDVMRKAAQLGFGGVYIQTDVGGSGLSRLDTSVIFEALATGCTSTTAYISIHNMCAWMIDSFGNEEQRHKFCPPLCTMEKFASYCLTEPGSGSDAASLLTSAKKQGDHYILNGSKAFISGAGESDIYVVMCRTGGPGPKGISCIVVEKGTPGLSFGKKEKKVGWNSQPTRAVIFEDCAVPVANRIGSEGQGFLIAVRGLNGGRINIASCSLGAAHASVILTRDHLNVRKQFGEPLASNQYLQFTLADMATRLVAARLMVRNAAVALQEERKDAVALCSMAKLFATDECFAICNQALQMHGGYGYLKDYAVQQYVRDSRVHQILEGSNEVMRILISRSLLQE
UniProt P33527: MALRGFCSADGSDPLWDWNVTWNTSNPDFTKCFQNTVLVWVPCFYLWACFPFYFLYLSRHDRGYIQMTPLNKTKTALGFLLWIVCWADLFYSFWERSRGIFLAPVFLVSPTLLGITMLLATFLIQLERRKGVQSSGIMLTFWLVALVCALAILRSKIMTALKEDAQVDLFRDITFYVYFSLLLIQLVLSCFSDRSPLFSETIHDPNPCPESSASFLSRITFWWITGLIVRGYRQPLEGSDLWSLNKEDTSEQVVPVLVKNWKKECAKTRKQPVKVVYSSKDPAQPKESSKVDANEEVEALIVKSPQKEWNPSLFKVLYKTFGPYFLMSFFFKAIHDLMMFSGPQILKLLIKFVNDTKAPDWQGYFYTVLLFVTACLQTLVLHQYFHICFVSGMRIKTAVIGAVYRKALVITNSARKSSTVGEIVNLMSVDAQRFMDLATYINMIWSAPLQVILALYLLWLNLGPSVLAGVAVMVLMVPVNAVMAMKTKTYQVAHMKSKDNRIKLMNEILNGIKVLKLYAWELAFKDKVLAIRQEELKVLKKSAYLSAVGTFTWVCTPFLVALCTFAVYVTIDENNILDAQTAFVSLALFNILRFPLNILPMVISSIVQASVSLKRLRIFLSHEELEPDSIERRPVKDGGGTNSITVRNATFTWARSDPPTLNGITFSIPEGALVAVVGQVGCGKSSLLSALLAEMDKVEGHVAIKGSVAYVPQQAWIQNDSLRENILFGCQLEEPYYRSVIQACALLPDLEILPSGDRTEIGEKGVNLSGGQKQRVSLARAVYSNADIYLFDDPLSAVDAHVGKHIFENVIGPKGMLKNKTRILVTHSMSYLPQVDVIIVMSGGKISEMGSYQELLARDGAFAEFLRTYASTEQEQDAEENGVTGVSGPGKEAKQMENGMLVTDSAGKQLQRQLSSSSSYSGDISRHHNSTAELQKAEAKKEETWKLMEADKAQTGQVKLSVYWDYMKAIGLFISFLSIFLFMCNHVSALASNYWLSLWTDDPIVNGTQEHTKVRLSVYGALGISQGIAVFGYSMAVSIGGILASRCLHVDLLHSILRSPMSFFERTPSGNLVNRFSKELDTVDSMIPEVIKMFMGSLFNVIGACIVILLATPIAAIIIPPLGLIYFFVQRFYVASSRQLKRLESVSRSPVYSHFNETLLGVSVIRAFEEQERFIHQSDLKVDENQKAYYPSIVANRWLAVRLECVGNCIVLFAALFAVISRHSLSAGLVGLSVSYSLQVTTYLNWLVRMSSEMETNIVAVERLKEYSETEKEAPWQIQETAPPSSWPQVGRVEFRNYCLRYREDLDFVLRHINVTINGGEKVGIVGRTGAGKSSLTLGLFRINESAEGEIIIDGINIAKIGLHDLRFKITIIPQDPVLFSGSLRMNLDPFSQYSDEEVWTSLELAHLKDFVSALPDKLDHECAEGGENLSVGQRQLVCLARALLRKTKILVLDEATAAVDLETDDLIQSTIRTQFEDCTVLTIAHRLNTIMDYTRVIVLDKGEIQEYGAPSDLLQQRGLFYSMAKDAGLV
UniProt P24752: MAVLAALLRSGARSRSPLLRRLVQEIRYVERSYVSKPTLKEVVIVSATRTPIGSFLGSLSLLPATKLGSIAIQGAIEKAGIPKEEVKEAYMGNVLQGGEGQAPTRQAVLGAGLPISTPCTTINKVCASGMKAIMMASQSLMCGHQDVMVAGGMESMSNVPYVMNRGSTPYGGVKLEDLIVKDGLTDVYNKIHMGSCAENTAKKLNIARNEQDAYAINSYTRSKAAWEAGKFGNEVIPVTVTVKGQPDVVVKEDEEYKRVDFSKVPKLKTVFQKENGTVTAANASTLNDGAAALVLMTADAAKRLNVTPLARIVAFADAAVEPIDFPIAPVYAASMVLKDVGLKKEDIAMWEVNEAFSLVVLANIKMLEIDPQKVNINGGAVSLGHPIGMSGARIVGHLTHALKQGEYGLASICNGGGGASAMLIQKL
UniProt Q9NRG9: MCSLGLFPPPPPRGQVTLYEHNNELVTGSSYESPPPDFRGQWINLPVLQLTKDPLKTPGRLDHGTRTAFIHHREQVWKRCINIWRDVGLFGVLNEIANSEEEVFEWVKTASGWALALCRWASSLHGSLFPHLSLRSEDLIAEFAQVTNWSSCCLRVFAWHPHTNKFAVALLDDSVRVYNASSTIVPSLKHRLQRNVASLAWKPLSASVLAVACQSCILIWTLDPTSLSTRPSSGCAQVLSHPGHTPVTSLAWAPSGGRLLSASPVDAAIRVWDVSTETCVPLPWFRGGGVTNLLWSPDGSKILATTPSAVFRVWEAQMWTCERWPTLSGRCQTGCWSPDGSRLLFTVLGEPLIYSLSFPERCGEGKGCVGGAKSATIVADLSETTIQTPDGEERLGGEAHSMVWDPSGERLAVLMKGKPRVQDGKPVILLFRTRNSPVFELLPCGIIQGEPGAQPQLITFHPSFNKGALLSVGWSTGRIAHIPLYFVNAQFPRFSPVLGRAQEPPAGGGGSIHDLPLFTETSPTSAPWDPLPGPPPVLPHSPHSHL
UniProt Q8WTS1: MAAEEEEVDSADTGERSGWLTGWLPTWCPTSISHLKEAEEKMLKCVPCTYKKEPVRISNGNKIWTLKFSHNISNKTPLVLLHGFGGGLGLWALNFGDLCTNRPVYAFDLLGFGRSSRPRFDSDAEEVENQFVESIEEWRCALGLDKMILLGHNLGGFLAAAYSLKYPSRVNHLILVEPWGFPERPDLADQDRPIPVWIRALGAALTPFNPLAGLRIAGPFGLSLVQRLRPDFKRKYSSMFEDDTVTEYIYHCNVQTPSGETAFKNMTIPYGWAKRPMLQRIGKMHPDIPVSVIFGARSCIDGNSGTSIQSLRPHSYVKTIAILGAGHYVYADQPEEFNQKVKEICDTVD
UniProt P07311: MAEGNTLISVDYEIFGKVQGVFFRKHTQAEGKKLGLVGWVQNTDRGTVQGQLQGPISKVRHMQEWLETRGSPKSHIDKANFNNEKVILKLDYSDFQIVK
UniProt Q9NX38: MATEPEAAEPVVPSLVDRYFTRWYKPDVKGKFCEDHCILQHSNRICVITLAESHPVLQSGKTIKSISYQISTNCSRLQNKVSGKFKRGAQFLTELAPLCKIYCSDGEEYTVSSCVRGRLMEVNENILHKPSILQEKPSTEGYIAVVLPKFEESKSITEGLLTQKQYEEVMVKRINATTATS
UniProt Q5T3U5: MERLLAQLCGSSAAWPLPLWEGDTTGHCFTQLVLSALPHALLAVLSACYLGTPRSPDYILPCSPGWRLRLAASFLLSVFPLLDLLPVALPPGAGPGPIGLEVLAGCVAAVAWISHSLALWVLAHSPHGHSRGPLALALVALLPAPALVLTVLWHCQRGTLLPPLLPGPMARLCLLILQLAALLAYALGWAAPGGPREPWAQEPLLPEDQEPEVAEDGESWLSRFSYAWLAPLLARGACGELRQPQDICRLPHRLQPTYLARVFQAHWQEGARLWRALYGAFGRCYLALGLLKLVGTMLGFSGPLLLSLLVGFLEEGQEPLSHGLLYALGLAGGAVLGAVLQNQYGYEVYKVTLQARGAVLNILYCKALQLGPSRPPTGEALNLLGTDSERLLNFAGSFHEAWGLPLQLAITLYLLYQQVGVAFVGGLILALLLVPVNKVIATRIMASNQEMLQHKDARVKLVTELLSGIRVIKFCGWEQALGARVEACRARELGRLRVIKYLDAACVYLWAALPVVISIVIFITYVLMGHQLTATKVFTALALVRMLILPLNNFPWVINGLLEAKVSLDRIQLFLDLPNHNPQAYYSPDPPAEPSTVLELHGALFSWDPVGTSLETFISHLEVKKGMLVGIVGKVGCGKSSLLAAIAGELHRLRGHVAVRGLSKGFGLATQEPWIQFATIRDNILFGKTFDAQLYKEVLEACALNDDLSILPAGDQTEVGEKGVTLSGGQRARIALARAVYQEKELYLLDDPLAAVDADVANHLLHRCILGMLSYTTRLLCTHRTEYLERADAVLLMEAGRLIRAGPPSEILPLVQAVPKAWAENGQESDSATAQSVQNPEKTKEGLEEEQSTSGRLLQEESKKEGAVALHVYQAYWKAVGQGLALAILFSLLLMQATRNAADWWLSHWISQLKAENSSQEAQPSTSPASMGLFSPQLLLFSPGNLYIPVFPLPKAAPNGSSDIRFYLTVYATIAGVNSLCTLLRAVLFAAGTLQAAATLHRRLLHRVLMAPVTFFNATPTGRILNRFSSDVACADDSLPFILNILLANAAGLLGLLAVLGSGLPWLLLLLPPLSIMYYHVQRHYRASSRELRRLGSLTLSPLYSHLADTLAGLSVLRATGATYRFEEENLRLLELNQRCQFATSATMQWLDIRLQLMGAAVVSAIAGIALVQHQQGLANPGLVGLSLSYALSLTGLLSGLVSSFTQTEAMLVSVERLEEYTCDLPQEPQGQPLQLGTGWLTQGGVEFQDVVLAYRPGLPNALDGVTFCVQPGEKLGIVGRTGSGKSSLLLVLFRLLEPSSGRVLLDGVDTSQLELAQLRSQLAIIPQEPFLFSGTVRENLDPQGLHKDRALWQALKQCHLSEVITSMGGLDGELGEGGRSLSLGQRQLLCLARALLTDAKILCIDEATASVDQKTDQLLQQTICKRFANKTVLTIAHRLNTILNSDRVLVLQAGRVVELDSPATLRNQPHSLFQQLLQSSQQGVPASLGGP
UniProt Q6PD74: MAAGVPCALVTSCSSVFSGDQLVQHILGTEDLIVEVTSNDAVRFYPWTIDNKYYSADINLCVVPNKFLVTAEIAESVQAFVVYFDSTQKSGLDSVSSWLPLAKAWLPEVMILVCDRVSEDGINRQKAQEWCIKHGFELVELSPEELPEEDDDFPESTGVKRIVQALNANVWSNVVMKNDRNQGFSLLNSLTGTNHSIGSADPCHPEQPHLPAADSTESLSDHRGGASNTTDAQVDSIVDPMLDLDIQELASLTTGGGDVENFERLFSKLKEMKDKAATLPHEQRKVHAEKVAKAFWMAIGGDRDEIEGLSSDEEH
UniProt O60488: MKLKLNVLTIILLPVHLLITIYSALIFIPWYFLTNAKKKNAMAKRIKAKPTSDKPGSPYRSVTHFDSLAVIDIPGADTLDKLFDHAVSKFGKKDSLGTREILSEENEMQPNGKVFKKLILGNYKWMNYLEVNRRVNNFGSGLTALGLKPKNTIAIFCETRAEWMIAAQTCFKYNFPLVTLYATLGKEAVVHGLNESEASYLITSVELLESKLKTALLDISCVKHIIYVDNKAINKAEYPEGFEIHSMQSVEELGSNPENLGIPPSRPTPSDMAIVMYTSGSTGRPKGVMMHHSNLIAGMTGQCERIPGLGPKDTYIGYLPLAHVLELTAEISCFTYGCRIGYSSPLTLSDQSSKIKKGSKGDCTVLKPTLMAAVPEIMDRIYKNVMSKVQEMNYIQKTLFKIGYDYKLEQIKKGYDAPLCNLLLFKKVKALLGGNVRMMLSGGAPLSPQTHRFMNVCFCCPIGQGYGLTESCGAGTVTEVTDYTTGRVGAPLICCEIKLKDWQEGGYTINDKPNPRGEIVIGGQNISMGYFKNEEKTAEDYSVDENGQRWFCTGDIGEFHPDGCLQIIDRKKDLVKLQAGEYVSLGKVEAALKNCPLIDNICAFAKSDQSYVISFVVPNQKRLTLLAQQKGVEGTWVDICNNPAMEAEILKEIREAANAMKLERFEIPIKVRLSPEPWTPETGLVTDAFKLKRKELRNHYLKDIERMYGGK

Legend:
Test in all cases: log2 fold change, soluble protein after heating vs DMSO (PISA); higher = thermal stabilisation; K562 cells, 10 uM, 30 min; active = over 0.2 and 3.5 SD of the protein, either way, in both replicates (recomputed)
saracatinib = compound: CN1CCN(CCOc2cc(OC3CCOCC3)c3c(Nc4c(Cl)ccc5c4OCO5)ncnc3c2)CC1 [saracatinib]
How it was run: (§1)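 Quantification of soluble protein used TMTpro 16plex LC-MS/MS, with channel sums equalised. Samples were the supernatant after 21,000xg for 90 min of pooled aliquots from K562 cells (2×10^6 cells/mL) treated with 10 μM compound for 30 min, heated for 3 min over 48°C-58°C, and extracted in PBS with 0.5% NP-40 at 4°C. Values, from duplicates, describe thermal stability against control samples on a log2 fold-change scale.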

sotrastaurin = compound: CN1CCN(c2nc(C3=C(c4c[nH]c5ccccc45)C(=O)NC3=O)c3ccccc3n2)CC1 [sotrastaurin]
How it was run: as §1

alvocidib = compound: CN1CC[C@H](c2c(O)cc(O)c3c(=O)cc(-c4ccccc4Cl)oc23)[C@H](O)C1 [alvocidib]
How it was run: as §1

Tubastatin A = compound: CN1CCc2c(c3ccccc3n2Cc2ccc(C(=O)NO)cc2)C1 [Tubastatin A]
How it was run: as §1

[1] = compound: CNC(=O)C1=CC=CC=C1NC2=NC(=NC=C2Cl)NC3=C(C=C(C=C3)N4CCOCC4)OC
How it was run: as §1

defactinib = compound: CNC(=O)c1ccc(Nc2ncc(C(F)(F)F)c(NCc3nccnc3N(C)S(C)(=O)=O)n2)cc1 [defactinib]
How it was run: as §1

rucaparib = compound: CNCc1ccc(-c2[nH]c3cc(F)cc4c3c2CCNC4=O)cc1 [rucaparib]
How it was run: as §1

[2] = compound: CNc1nc(-c2ccc3c(N)n[nH]c3c2)cc(N2C[C@@H](C(=O)NC3CCCCC3)CC[C@H]2C)n1
How it was run: as §1

encorafenib = compound: COC(=O)N[C@@H](C)CNc1nccc(-c2cn(C(C)C)nc2-c2cc(Cl)cc(NS(C)(=O)=O)c2F)n1 [encorafenib]
How it was run: as §1

[3] = compound: COC(=O)[C@H](CCSC)NC(=O)C1=C(C=C(C=C1)NC[C@H](CS)N)C2=CC=CC=C2
How it was run: as §1

[4] = compound: COC1=CC=C(C=C1)CN2C=CC3=C2C=C(C=C3)C(=O)NO
How it was run: as §1

filanesib = compound: CON(C)C(=O)N1N=C(c2cc(F)ccc2F)S[C@@]1(CCCN)c1ccccc1 [filanesib]
How it was run: as §1

zotarolimus = compound: CO[C@H]1C[C@@H]2CC[C@@H](C)[C@@](O)(O2)C(=O)C(=O)N2CCCC[C@H]2C(=O)O[C@H]([C@H](C)C[C@@H]2CC[C@H](n3cnnn3)[C@H](OC)C2)CC(=O)[C@H](C)/C=C(\C)[C@@H](O)[C@@H](OC)C(=O)[C@H](C)C[C@H](C)/C=C/C=C/C=C/1C [zotarolimus]
How it was run: as §1

idasanutlin = compound: COc1cc(C(=O)O)ccc1NC(=O)[C@@H]1N[C@@H](CC(C)(C)C)[C@](C#N)(c2ccc(Cl)cc2F)[C@H]1c1cccc(Cl)c1F [idasanutlin]
How it was run: as §1

alisertib = compound: COc1cc(Nc2ncc3c(n2)-c2ccc(Cl)cc2C(c2c(F)cccc2OC)=NC3)ccc1C(=O)O [alisertib]
How it was run: as §1

[5] = compound: COc1cc2nc(-c3cc(F)ccc3O)nc(N[C@@H]3CNC[C@H]3C(C)(C)O)c2cc1OC
How it was run: as §1

gefitinib = compound: COc1cc2ncnc(Nc3ccc(F)c(Cl)c3)c2cc1OCCCN1CCOCC1 [gefitinib]
How it was run: as §1

[6] = compound: COc1cccc2cc(-c3nc([C@H]4CC[C@H](C(=O)O)CC4)n4ncnc(N)c34)[nH]c12
How it was run: as §1

lapatinib = compound: CS(=O)(=O)CCNCc1ccc(-c2ccc3ncnc(Nc4ccc(OCc5cccc(F)c5)c(Cl)c4)c3c2)o1 [lapatinib]
How it was run: as §1

pictilisib = compound: CS(=O)(=O)N1CCN(Cc2cc3nc(-c4cccc5[nH]ncc45)nc(N4CCOCC4)c3s2)CC1 [pictilisib]
How it was run: as §1

Measured: log2 fold change

ACTN4 (UniProt O43707)
inactive: saracatinib 0.021 | sotrastaurin 0.013 | alvocidib 0.007 | Tubastatin A -0.013 | [1] 0.035 | defactinib 0 | rucaparib -0.04 | [2] -0.058 | encorafenib -0.047 | [3] 0.005 | [4] 0.014 | filanesib -0.009 | zotarolimus 0.022 | idasanutlin -0.017 | alisertib -0.033 | [5] 0.019 | gefitinib 0.005 | [6] 0.047 | lapatinib -0.048 | pictilisib 0.012

ABCC4 (UniProt O15439)
inactive: saracatinib 0.034 | sotrastaurin 0.028 | alvocidib 0.028 | Tubastatin A 0.001 | [1] -0.041 | defactinib -0.021 | rucaparib -0.023 | [2] -0.01 | encorafenib -0.004 | [3] -0.029 | [4] 0.023 | filanesib 0.067 | zotarolimus -0.029 | idasanutlin -0.021 | alisertib -0.05 | [5] 0.058 | gefitinib 0.021 | [6] 0.062 | lapatinib -0.024 | pictilisib 0.046

ABI1 (UniProt Q8IZP0)
inactive: saracatinib -0.044 | sotrastaurin 0.027 | alvocidib -0.16 | Tubastatin A -0.033 | [1] 0.014 | defactinib -0.005 | rucaparib 0.037 | [2] -0.039 | encorafenib -0.022 | [3] -0.03 | [4] 0.02 | filanesib 0.027 | zotarolimus 0.091 | idasanutlin -0.034 | alisertib -0.042 | [5] 0.034 | gefitinib 0.025 | [6] 0.012 | lapatinib -0.002 | pictilisib -0.078

ACAD8 (UniProt Q9UKU7)
inactive: saracatinib 0.046 | sotrastaurin 0.048 | alvocidib -0.007 | Tubastatin A -0.036 | [1] -0.072 | defactinib 0.004 | rucaparib -0.189 | [2] -0.098 | encorafenib -0.007 | [3] 0.028 | [4] -0.122 | filanesib 0.074 | zotarolimus -0.003 | idasanutlin -0.065 | alisertib -0.104 | [5] 0.064 | gefitinib 0.098 | [6] 0.056 | lapatinib -0.035 | pictilisib 0.021

ABCC1 (UniProt P33527)
inactive: saracatinib 0.074 | sotrastaurin 0.012 | alvocidib -0.038 | Tubastatin A 0.006 | [1] -0.031 | defactinib -0.036 | rucaparib -0.013 | [2] 0.061 | encorafenib -0.009 | [3] 0.027 | [4] -0.036 | filanesib 0.085 | zotarolimus 0.008 | idasanutlin -0.053 | alisertib -0.035 | [5] 0.067 | gefitinib 0.021 | [6] 0.054 | lapatinib 0.054 | pictilisib 0.053

ACAT1 (UniProt P24752)
inactive: saracatinib 0.016 | sotrastaurin -0.016 | alvocidib -0.017 | Tubastatin A 0.003 | [1] -0.037 | defactinib 0.002 | rucaparib -0.052 | [2] -0.074 | encorafenib -0.011 | [3] 0.06 | [4] -0.031 | filanesib -0.033 | zotarolimus -0.026 | idasanutlin 0.018 | alisertib -0.12 | [5] 0.007 | gefitinib 0.006 | [6] 0.01 | lapatinib -0.055 | pictilisib -0.022

ACTN4 (UniProt K7EJH8)
inactive: saracatinib -0.05 | sotrastaurin 0.009 | alvocidib -0.119 | Tubastatin A -0.099 | [1] 0.001 | rucaparib -0.05 | [2] 0.022 | encorafenib 0.018 | [4] 0.042 | filanesib -0.033 | zotarolimus 0.002 | idasanutlin -0.012 | alisertib -0.196 | [5] 0.011 | [6] 0.148 | lapatinib 0.001 | pictilisib -0.05

AAAS (UniProt Q9NRG9)
inactive: saracatinib -0.005 | sotrastaurin -0.009 | alvocidib -0.058 | Tubastatin A -0.001 | [1] 0.002 | defactinib -0.048 | rucaparib -0.046 | [2] 0.018 | encorafenib 0.007 | [3] -0.054 | [4] 0.012 | filanesib 0.004 | zotarolimus 0.022 | idasanutlin 0.001 | alisertib -0.073 | [5] -0.003 | gefitinib 0.018 | [6] 0.002 | lapatinib 0.018 | pictilisib -0.012

ABHD5 (UniProt Q8WTS1)
inactive: saracatinib -0.153 | sotrastaurin -0.11 | alvocidib 0.019 | Tubastatin A 0.023 | [1] -0.01 | rucaparib 0.033 | [2] 0 | encorafenib -0.068 | [4] 0.043 | filanesib 0.098 | zotarolimus 0.111 | idasanutlin -0.047 | [5] -0.108 | lapatinib 0.025

ACYP1 (UniProt P07311)
inactive: saracatinib 0.006 | sotrastaurin 0.032 | alvocidib -0.064 | Tubastatin A 0.013 | [1] 0.089 | defactinib -0.027 | rucaparib -0.071 | [2] -0.057 | encorafenib -0.062 | [3] 0.011 | [4] -0.046 | filanesib -0.047 | zotarolimus 0.016 | idasanutlin -0.05 | alisertib -0.056 | [5] -0.041 | gefitinib 0.02 | [6] 0.037 | lapatinib 0.017 | pictilisib 0.182

ABLIM1 (UniProt O14639)
inactive: saracatinib -0.17 | sotrastaurin -0.089 | alvocidib -0.009 | Tubastatin A 0.137 | [1] 0.011 | defactinib -0.105 | rucaparib -0.045 | [2] 0.37 | encorafenib -0.059 | [3] -0.011 | [4] 0.033 | filanesib 0.24 | zotarolimus -0.117 | idasanutlin -0.163 | alisertib 1.49 | [5] 0.179 | gefitinib 0.035 | [6] 0.033 | lapatinib -0.126 | pictilisib -0.145

ABCE1 (UniProt P61221)
inactive: saracatinib -0.005 | sotrastaurin 0.013 | alvocidib 0.012 | Tubastatin A -0.023 | [1] 0.083 | defactinib 0.004 | rucaparib -0.051 | [2] -0.047 | encorafenib -0.004 | [3] 0.021 | [4] 0.128 | filanesib -0.047 | zotarolimus 0.011 | idasanutlin -0.001 | alisertib -0.031 | [5] 0.001 | gefitinib -0.013 | [6] 0.054 | lapatinib -0.026 | pictilisib 0.044

ABITRAM (UniProt Q9NX38)
inactive: saracatinib 0.035 | sotrastaurin -0.188 | Tubastatin A -0.007 | defactinib -0.164 | rucaparib -0.041 | [2] -0.243 | encorafenib 0.025 | [3] -0.049 | [4] 0.06 | filanesib 0.036 | zotarolimus 0.041 | idasanutlin 0.022 | alisertib 0.101 | [5] 0.006 | gefitinib 0.111 | [6] 0.139 | lapatinib 0.021 | pictilisib 0.053

ADAMTS13 (UniProt Q76LX8)
inactive: saracatinib 0.261 | sotrastaurin 0.071 | rucaparib -0.021 | [2] 0.269 | encorafenib -0.054 | filanesib -0.014 | idasanutlin 0.14 | [5] 0.105 | lapatinib -0.098

ABCC10 (UniProt Q5T3U5)
inactive: saracatinib 0.107 | sotrastaurin -0.007 | Tubastatin A 0.118 | [1] 0.012 | defactinib -0.168 | [2] -0.073 | [3] 0.036 | filanesib -0.024 | idasanutlin -0.238 | [5] 0.242 | gefitinib -0.124 | lapatinib -0.118 | pictilisib 0.051

AAGAB (UniProt Q6PD74)
inactive: saracatinib 0.168 | sotrastaurin 0.007 | Tubastatin A 0.016 | [1] 0.112 | defactinib -0.187 | rucaparib 0.055 | [2] -0.084 | encorafenib 0.045 | [3] -0.029 | [4] -0.017 | filanesib 0.041 | zotarolimus -0.093 | idasanutlin -0.053 | alisertib 0.062 | [5] -0.064 | gefitinib -0.027 | [6] -0.045 | lapatinib -0.038 | pictilisib 0.039

ACSL4 (UniProt O60488)
inactive: saracatinib -0.128 | sotrastaurin -0.086 | Tubastatin A 0.071 | [1] 0.05 | defactinib -0.041 | rucaparib 0.069 | [2] 0.043 | encorafenib 0.094 | [3] -0.024 | [4] 0.09 | filanesib -0.071 | zotarolimus -0.058 | idasanutlin -0.113 | alisertib -0.006 | [5] -0.105 | gefitinib 0.075 | [6] -0.053 | lapatinib 0.052 | pictilisib 0.052

Taken from the listing (four entries):
ADAMTS13 (UniProt Q76LX8)
inactive: saracatinib 0.261 | sotrastaurin 0.071 | rucaparib -0.021 | [2] 0.269 | encorafenib -0.054 | filanesib -0.014 | idasanutlin 0.14 | [5] 0.105 | lapatinib -0.098

ABCC10 (UniProt Q5T3U5)
inactive: saracatinib 0.107 | sotrastaurin -0.007 | Tubastatin A 0.118 | [1] 0.012 | defactinib -0.168 | [2] -0.073 | [3] 0.036 | filanesib -0.024 | idasanutlin -0.238 | [5] 0.242 | gefitinib -0.124 | lapatinib -0.118 | pictilisib 0.051

AAGAB (UniProt Q6PD74)
inactive: saracatinib 0.168 | sotrastaurin 0.007 | Tubastatin A 0.016 | [1] 0.112 | defactinib -0.187 | rucaparib 0.055 | [2] -0.084 | encorafenib 0.045 | [3] -0.029 | [4] -0.017 | filanesib 0.041 | zotarolimus -0.093 | idasanutlin -0.053 | alisertib 0.062 | [5] -0.064 | gefitinib -0.027 | [6] -0.045 | lapatinib -0.038 | pictilisib 0.039

ACSL4 (UniProt O60488)
inactive: saracatinib -0.128 | sotrastaurin -0.086 | Tubastatin A 0.071 | [1] 0.05 | defactinib -0.041 | rucaparib 0.069 | [2] 0.043 | encorafenib 0.094 | [3] -0.024 | [4] 0.09 | filanesib -0.071 | zotarolimus -0.058 | idasanutlin -0.113 | alisertib -0.006 | [5] -0.105 | gefitinib 0.075 | [6] -0.053 | lapatinib 0.052 | pictilisib 0.052
